Patent US20240139151A1, “COMPOSITION INCLUDING DECURSINOL AS ACTIVE INGREDIENT FOR PREVENTING OR TREATING SMOOTH MUSCLE CELL PROLIFERATIVE DISEASES” (KYUNGSUNG UNIVERSITY INDUSTRY COOPERATION FOUNDATION, priority 2021, published 2024)

Test system: vascular smooth cell line A10
Assay: Inhibition of high glucose-induced proliferation of A10 cells (EC100)
Assay type: cell-based

## CC(C)=CC(=O)O[C@H]1Cc2cc3ccc(=O)oc3cc2OC1(C)C [Decursin, decursin]
IC50 divided by EC100
  Therapeutic index (IC50/EC100): 11.5

## C/C=C(/C)C(=O)O[C@H]1Cc2cc3ccc(=O)oc3cc2OC1(C)C [Decursinol angelate, decursinol angelate]
IC50 divided by EC100
  Therapeutic index (IC50/EC100): 28.1

## CC1(C)Oc2cc3oc(=O)ccc3cc2C[C@@H]1O [Decursinol, decursinol]
IC50 divided by EC100
  Therapeutic index (IC50/EC100): >49.5
IC50 divided by EC100, listed as decursinol
  Therapeutic index (IC50/EC100): 34.7
